No constants are given. Whether binding was seen depends on the method and setting. Some binding calls cover weakened binding; strength is not graded here. For part of these data: Tags and fused reporters may be left off the sequences shown.
How the values were obtained:
[1] = target: T1, Schizosaccharomyces pombe Gemin2 (Schizosaccharomyces pombe) (UniProt P0CU08); assay: co-purification of co-expressed proteins; bacterial co-expression; human: Ni-NTA and chitin beads by the Mxe intein-His6 on Gemin2, then Superdex 200
T1 sequence: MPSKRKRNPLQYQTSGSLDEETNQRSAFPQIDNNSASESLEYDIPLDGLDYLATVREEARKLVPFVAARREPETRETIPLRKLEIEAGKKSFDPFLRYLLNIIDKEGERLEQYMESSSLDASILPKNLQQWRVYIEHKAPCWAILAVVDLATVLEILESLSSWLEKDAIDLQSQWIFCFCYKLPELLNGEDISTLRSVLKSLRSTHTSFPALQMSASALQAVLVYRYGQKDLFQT

[2] = target: spSMN(Y136C)•Gemin2 (Schizosaccharomyces pombe) (UniProt Q09808+P0CU08); assay: SEC-MALS; Superdex 200 10/300 GL, 0.5 ml/min, room temperature (20°C), 50 mM HEPES-NaOH pH 7.5, 250 mM NaCl, 5 mM DTT; self-association of the SMN•G2 unit, (SMN•G2)n; both purified
[3] = target: dmSMN(G206S)•Gemin2 (Drosophila melanogaster) (UniProt Q9VV74+Q9VVX0); assay: as above

B1: Schizosaccharomyces pombe SMN (protein, UniProt Q09808 1-152)
chain: MDQSQKEVWDDSELRNAFETALHEFKKYHSIEAKGGVSDPDSRLDGEKLISAARTEESISKLEEGEQMINQQTETTLEGDTHIQQFADNKGLSDEKPETRAAETHQEFMEVPPPIRGLTYDETYKKLIMSWYYAGYYTGLAEGLAKSEQRKD
In the case of B1, the binding [1] is reported as “binds”.

B2: spSMN(Y136C)•Gemin2 (complex, UniProt Q09808 1-152; P0CU08 1-235)
chain 1: MDQSQKEVWDDSELRNAFETALHEFKKYHSIEAKGGVSDPDSRLDGEKLISAARTEESISKLEEGEQMINQQTETTLEGDTHIQQFADNKGLSDEKPETRAAETHQEFMEVPPPIRGLTYDETYKKLIMSWYYAGCYTGLAEGLAKSEQRKD
chain 2: MPSKRKRNPLQYQTSGSLDEETNQRSAFPQIDNNSASESLEYDIPLDGLDYLATVREEARKLVPFVAARREPETRETIPLRKLEIEAGKKSFDPFLRYLLNIIDKEGERLEQYMESSSLDASILPKNLQQWRVYIEHKAPCWAILAVVDLATVLEILESLSSWLEKDAIDLQSQWIFCFCYKLPELLNGEDISTLRSVLKSLRSTHTSFPALQMSASALQAVLVYRYGQKDLFQT
B2 was tested, and the binding [2] was “no binding”.

B3: dmSMN(G206S)•Gemin2 (complex, UniProt Q9VV74 1-226; Q9VVX0 1-245)
chain 1: MSDETNAAVWDDSLLVKTYDESVGLAREALARRLADSTNKREEENAAAAEEEAGEISATGGATSPEPVSFKVGDYARATYVDGVDYEGAVVSINEEKGTCVLRYLGYENEQEVLLVDLLPSWGKRVRREQFLIAKKDEDEQLSRPKASAGSHSKTPKSSRRSRISGGLVMPPMPPVPPMIVGQGDGAEQDFVAMLTAWYMSGYYTSLYQGKKEASTTSGKKKTPKK
chain 2: MQHEPEDQTFQLQALEICEPDSSFDPQKPPESGEEYLMHMFYERKRCPAVVTKRSSKIRNNTGNTTLEMLDNPELPPFKCLLPTPEWRDEQVKSFQAARSQVLVLRKELANNNYDQSGEPPLTSDQEKWKEFCRNQQPLLSTLLHLTQNDLELLLEMLSKWLQDPNTTVDLLHDVWLARWLYATLVCLHLPLEPHVFSTLRYIARTCIHLRNQLKEDEVQRAAPYNLLLTLTVQVFAQNDFKDYI
For B3, the binding [3] was “no binding”.

From paper PMC8287954
